From the supplement of paper PMC12819154, “High-throughput peptide-centric local stability assay extends protein–ligand identification to membrane proteins, tissues and bacteria” (Nature Structural & Molecular Biology, 2025)
The list shows a part of the results. Most entries show no effect beyond the scatter of the controls.

Chains of the proteins cited; added tags and fusions are not shown. Lines headed by an entry give the natural chain unless they say otherwise; changes in a name come on top.
UniProt O14744, whole entry: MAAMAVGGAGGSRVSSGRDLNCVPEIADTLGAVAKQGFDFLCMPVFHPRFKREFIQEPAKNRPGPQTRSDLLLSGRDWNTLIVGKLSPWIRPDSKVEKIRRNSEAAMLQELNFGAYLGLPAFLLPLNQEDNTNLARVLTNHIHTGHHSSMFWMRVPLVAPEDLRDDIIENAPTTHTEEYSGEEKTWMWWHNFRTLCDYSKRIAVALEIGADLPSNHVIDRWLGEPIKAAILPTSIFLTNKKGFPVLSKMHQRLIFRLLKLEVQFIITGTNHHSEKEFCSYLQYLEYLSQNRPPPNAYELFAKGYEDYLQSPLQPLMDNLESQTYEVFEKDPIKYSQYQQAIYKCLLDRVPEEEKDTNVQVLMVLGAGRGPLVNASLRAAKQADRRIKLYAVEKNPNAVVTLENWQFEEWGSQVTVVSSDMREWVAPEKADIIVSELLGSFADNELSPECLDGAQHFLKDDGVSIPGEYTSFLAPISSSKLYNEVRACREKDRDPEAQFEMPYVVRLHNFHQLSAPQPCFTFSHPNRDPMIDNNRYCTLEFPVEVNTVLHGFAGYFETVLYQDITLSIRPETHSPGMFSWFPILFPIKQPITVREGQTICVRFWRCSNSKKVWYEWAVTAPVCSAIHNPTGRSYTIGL
UniProt B2RTY4: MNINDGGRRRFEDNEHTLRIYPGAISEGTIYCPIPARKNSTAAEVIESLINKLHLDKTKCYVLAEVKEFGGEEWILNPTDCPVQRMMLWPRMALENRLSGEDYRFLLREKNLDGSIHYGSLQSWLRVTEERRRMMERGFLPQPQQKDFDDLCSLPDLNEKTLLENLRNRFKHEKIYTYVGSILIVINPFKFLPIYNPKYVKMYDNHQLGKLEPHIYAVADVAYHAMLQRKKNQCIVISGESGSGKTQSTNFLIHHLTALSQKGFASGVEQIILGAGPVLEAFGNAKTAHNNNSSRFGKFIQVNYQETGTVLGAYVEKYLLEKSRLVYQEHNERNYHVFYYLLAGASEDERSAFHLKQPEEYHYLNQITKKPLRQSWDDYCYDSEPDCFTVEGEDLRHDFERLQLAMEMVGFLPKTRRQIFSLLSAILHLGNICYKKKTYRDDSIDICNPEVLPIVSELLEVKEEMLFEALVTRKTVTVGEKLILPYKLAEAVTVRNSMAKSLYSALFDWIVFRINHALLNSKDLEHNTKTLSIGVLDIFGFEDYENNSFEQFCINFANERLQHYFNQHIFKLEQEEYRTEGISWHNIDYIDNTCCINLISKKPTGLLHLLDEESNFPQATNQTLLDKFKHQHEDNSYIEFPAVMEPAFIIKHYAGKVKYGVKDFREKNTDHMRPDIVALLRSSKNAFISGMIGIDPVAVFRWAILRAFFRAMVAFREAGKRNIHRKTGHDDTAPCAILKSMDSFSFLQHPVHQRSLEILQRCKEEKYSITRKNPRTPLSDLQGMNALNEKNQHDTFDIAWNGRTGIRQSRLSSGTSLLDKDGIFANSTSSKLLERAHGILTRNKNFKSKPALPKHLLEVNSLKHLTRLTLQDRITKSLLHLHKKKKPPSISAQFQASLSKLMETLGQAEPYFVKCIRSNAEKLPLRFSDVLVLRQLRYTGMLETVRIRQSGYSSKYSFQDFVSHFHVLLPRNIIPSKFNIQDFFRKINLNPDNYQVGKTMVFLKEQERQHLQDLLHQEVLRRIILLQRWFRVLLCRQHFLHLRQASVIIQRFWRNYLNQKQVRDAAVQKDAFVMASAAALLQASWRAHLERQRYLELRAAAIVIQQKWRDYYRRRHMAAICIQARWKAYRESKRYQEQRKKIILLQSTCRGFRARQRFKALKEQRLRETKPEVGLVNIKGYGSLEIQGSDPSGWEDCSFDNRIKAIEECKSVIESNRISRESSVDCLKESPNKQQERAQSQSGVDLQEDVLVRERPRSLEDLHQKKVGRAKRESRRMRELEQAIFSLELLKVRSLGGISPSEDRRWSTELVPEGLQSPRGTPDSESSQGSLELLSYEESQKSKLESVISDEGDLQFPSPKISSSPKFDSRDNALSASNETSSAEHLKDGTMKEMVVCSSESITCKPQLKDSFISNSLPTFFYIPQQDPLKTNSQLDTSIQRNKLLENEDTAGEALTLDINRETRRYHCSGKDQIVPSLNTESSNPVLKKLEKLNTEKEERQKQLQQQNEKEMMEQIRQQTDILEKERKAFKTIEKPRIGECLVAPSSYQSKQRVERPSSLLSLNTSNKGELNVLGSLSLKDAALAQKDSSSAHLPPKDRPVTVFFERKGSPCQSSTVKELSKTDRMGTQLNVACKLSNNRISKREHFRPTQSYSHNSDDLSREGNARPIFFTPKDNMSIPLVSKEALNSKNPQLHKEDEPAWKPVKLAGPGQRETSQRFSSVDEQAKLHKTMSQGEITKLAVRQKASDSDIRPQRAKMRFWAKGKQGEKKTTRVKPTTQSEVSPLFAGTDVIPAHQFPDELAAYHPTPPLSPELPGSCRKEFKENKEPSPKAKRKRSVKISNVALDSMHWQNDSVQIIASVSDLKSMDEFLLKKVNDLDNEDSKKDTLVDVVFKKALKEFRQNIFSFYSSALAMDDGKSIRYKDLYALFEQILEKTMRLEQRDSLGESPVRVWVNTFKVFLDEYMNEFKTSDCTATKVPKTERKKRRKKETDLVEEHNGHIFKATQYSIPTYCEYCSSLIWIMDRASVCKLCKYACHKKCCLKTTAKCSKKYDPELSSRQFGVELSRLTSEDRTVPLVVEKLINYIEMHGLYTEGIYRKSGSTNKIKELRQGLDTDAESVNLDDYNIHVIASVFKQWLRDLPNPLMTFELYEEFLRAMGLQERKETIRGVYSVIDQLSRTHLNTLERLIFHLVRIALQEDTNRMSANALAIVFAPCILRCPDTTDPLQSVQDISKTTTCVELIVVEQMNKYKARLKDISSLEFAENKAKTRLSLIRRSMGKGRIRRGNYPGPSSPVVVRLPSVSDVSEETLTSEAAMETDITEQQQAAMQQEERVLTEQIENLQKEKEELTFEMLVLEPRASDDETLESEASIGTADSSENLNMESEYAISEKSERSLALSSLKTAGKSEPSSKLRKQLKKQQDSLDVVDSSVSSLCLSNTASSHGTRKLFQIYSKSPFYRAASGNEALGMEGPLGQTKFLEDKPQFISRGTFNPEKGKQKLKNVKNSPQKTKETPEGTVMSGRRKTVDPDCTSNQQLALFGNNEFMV
UniProt O14578, whole entry: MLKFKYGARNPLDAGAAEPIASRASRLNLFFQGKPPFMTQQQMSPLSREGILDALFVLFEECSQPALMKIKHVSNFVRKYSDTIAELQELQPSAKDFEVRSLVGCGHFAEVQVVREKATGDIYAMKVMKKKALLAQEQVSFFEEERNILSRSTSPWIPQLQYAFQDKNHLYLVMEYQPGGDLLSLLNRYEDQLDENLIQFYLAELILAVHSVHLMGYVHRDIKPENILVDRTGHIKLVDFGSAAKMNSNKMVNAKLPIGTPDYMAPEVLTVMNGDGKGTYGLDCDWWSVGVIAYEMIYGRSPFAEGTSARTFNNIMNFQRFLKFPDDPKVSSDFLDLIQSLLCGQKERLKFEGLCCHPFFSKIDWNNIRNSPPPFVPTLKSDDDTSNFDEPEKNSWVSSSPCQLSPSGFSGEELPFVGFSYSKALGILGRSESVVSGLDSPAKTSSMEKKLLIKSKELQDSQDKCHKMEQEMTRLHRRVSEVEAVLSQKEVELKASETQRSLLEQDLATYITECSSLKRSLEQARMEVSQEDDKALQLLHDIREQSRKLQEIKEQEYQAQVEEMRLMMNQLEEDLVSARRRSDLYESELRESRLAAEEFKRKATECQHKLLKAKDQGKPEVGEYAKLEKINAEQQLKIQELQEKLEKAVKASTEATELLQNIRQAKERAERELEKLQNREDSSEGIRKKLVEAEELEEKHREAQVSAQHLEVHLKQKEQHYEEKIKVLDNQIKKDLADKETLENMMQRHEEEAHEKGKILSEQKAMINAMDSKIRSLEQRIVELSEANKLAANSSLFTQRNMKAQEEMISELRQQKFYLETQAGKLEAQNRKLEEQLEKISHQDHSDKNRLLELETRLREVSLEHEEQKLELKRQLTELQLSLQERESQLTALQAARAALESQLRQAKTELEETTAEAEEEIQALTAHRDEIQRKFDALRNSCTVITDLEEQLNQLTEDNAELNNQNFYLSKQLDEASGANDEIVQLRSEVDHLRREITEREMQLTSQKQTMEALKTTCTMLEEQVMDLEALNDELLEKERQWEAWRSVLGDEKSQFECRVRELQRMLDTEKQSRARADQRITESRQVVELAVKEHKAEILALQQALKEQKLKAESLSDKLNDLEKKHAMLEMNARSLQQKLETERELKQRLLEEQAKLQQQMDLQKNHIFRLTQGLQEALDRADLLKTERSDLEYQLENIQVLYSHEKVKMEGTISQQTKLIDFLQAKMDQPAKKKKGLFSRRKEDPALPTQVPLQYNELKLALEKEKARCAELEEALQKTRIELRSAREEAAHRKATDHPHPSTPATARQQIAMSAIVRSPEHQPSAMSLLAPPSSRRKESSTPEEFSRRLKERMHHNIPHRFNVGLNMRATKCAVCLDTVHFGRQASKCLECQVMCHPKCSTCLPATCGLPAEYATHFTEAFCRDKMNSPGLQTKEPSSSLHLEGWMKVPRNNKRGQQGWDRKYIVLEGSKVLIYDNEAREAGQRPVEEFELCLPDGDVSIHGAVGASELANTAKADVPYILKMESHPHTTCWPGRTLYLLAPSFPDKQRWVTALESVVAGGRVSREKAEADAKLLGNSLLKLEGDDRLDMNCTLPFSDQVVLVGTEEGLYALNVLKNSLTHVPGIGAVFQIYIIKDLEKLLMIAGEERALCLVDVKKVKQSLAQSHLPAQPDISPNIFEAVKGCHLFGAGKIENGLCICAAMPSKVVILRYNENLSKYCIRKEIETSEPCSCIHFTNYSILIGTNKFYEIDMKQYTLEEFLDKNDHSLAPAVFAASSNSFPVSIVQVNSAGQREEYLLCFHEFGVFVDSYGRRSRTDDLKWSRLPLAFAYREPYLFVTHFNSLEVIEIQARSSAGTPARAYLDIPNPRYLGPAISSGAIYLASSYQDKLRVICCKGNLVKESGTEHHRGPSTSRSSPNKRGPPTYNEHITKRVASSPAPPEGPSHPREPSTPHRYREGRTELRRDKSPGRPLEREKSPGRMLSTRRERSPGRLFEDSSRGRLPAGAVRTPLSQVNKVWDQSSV
UniProt O14964, whole entry: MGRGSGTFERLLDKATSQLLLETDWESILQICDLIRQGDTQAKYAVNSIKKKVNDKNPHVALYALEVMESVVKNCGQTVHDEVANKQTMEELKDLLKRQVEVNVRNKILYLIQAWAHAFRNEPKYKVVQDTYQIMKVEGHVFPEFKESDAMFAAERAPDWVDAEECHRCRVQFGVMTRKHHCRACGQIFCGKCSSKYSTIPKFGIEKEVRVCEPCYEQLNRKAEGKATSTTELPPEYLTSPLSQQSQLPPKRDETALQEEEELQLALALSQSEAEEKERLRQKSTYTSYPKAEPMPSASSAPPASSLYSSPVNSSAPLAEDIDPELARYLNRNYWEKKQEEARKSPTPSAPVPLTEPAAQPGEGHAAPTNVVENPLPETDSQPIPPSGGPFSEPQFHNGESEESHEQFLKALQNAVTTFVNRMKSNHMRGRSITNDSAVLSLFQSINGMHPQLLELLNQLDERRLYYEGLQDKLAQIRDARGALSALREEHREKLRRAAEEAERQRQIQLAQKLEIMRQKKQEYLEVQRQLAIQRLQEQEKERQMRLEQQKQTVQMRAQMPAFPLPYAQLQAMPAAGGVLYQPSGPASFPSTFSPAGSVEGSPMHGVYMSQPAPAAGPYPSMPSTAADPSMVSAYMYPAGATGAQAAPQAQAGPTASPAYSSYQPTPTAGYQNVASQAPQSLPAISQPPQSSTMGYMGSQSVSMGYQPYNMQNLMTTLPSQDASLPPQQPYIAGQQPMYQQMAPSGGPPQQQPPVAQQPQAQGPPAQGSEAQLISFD
UniProt O00193: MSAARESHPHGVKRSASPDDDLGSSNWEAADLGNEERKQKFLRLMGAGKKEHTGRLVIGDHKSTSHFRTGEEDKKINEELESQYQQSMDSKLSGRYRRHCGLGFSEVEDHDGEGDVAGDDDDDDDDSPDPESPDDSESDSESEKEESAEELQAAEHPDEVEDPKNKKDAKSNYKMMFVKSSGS
UniProt O00264: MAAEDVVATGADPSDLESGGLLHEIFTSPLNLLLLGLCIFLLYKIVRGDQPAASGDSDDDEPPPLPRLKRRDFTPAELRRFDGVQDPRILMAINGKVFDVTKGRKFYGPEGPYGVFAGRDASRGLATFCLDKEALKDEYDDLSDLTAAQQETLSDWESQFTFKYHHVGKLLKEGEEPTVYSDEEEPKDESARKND

Compound: CN[C@@H]1C[C@H]2O[C@@](C)([C@@H]1OC)n1c3ccccc3c3c4c(c5c6ccccc6n2c5c31)C(=O)NC4 [staurosporine]
Experiment: log2 fold change of tryptic peptide abundance, ligand vs vehicle (limited proteolysis) (log2 ratio); higher = more trypsin-susceptible (destabilized)
Details: ligand concentration: 20 uM; sample: K562 cleared lysate; digestion: 4 min, 22 C (HT-PELSA RT4min, Orbitrap Astral)

Row | Target | log2 fold change
1 | PRMT5 (peptide sequence: SDLLLSGR, peptide start residue: 69) (UniProt O14744) | -0.469
2 | TPP1 (peptide sequence: LYQQHGAGLFDVTR, peptide start residue: 507) (UniProt O14773) | -0.233
3 | MYO9A (peptide sequence: GVYSVIDQLSR, peptide start residue: 2169) (UniProt B2RTY4) | 0.346
4 | CIT (peptide sequence: CAELEEALQK, peptide start residue: 1272) (UniProt O14578) | -0.24
5 | HGS (peptide sequence: ESDAMFAAER, peptide start residue: 147) (UniProt O14964) | 0.242
6 | GEMIN2 (peptide sequence: TPQEYLR, peptide start residue: 48) (UniProt O14893) | -0.0703
7 | ACOT7 (peptide sequence: GCVITISGR, peptide start residue: 287) (UniProt O00154) | -0.195
8 | CROCC2 (peptide sequence: RWAQRQTR, peptide start residue: 210) (UniProt H7BZ55) | 0.0567
9 | UniProt O00193 (peptide sequence: ESHPHGVKR, peptide start residue: 6) | 0.146
10 | PGRMC1 (peptide sequence: DFTPAELR, peptide start residue: 72) (UniProt O00264) | 0.0681
11 | PPP6C (peptide sequence: YLPENDLKR, peptide start residue: 18) (UniProt O00743) | 0.201

An excerpt of these results, in markdown.

| Row | Target | log2 fold change |
| --- | --- | --- |
| 10 | PGRMC1 (peptide sequence: DFTPAELR, peptide start residue: 72) (UniProt O00264) | 0.0681 |
| 11 | PPP6C (peptide sequence: YLPENDLKR, peptide start residue: 18) (UniProt O00743) | 0.201 |
